Laboratory results published in the supplement of paper PMC10849652.
The list shows a part of the results.

Amino acid sequences for entries named in this document (tags omitted). A change or cut given only in a name is not applied to a line headed by its entry.
UniProt Q16774: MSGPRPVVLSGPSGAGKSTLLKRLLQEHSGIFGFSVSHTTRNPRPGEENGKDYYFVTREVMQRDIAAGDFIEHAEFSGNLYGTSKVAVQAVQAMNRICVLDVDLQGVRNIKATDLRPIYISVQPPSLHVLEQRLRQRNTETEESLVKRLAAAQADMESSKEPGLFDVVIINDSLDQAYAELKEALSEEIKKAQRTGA
UniProt P69892: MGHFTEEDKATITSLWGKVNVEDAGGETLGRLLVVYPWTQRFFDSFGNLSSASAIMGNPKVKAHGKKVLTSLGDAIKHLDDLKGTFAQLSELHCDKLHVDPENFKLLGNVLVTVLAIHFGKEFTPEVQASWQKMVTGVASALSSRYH
UniProt P57764: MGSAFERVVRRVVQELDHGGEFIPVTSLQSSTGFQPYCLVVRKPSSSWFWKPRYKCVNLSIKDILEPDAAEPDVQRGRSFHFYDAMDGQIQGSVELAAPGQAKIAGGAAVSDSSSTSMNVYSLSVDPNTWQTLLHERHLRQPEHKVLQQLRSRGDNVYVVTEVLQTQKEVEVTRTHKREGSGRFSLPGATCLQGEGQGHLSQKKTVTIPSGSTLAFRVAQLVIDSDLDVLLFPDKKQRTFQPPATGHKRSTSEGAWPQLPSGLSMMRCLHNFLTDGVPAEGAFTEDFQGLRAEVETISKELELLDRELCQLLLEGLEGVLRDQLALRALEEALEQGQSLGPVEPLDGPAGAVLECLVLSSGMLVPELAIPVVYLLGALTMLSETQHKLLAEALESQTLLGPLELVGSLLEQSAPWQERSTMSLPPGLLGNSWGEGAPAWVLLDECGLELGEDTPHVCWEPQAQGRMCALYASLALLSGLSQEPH

Legend:
Assay in all cases: log2 fold change, soluble protein after heating vs DMSO (PISA); higher = thermal stabilisation; K562 lysate, 10 uM; active = over 0.2 and 3.5 SD of the protein, either way, in both replicates (recomputed)
[1] = compound: C1=CC=C(C=C1)[C@H](COC2=CC3=C(C=C2)NC(=O)N3)NC(=O)C4=CC=CN(C4=O)CC5=CC(=C(C=C5)F)F
Outline: (§1)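 K562 pellets were dounce-homogenised in PBS pH 7.4 with 1 mM MgCl2, and the crude extract at 1 mg/mL protein was treated with 10 μM compound for 30 min. Aliquots were heated for 3 min across 48°C-58°C, pooled, and brought to 0.5% NP-40 at 4°C; soluble protein was the supernatant after 21,000xg for 90 min. Soluble protein was quantified by TMTpro 16plex LC-MS/MS with channel sums equalised, and reported as log2 fold change in thermal stability against DMSO controls, with values from duplicates.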

[2] = compound: CC1=C(SC2=C1C(=N[C@H](C3=NN=C(N32)C)CC(=O)N)C4=CC=C(C=C4)Cl)C
Outline: as §1

[3] = compound: CC1=C2C(=CC=C1)N=C(N(C2=O)C3=CC=CC=C3C)CN4C=NC5=C(N=CN=C54)N
Outline: as §1

[4] = compound: Cc1sc2c(c1C)C(c1ccc(Cl)cc1)=N[C@@H](CC(=O)OC(C)(C)C)c1nnc(C)n1-2
Outline: as §1

[5] = compound: c1ccc([C@@H]2C[C@H]2NC2CCNCC2)cc1
Outline: as §1

Measured: log2 fold change

GUK1 isoform 2 (UniProt Q16774)
inactive: [1] -0.028 | [2] 0.008 | [3] 0.018 | [4] -0.015 | [5] -0.085

HAGH isoform 2 (UniProt Q16775)
inactive: [4] 0.103

HBG2 (UniProt P69892)
inactive: [1] 0.024 | [2] -0.08 | [3] 0.002 | [4] -0.001 | [5] 0.016

GSDMD (UniProt P57764)
inactive: [3] -0.156

H2AFX (UniProt P16104)
inactive: [1] 0.088 | [2] -0.044 | [3] 0.022 | [4] 0.08 | [5] -0.041
